According to paper PMC10184828:
No constants are given. Whether binding was seen depends on the method and setting. For part of these data: A result given as binding can be weak or reduced; the word gives no strength. Sequences can lack the tags named with a protein. For part of these data: In cells and extracts the contact can be indirect.

B1: Sec16 fragment 1856–2195 (activation domain-fused) (domain or fragment, UniProt P48415 1856-2195)
chain: STDATKMNYSPYVPQSTAASADGDESTILKTSPAIYARTHQAHASNPSQYFPLVNQANETASFELSESTSQAQSNGNVASENRFSPIKKAEVVEKDTFQPTIRKASTNQYRAFKPLESDADKYNDVIEDESDDDNMSTDEAKNRKEEKKNVNMKKETKPSNKDIDDKSNGWFGWLKKDTGDKKVYKAKLGHKNTLYYDEKLKRWVNKDATEEEKQKIIESSAPPPPPIVKRKDGGPKTKPRSGPINNSLPPVHATSVIPNNPITGEPLPIKTSPSPTGPNPNNSPSPSSPISRISGVNLTSKKANGLDDLLSLAGGPKPASTRRKKKTARGYVNVMDNIQ
B2: Sec16 fragment 1639–2195 (activation domain-fused) (domain or fragment, UniProt P48415 1639-2195)
chain: MYSPSVEALPIDPVVPQVHETGYNDFGNKHSQKSMPEDESHTSHDNSNADQNTLKDSADVTDETMDIEGPGFNDVKNLLPMEPNHQPTSTVNPIQTISDDIQPILQTNVEVRGTDASKMENSLPSIENERSSEEQPENISKSASSAYLPSTGGLSLENRPLTQDENSISETVQSTYLPAGSISMEAKPISQVQDVPRNVNNKASKLVEQHMAPPKPKSTDATKMNYSPYVPQSTAASADGDESTILKTSPAIYARTHQAHASNPSQYFPLVNQANETASFELSESTSQAQSNGNVASENRFSPIKKAEVVEKDTFQPTIRKASTNQYRAFKPLESDADKYNDVIEDESDDDNMSTDEAKNRKEEKKNVNMKKETKPSNKDIDDKSNGWFGWLKKDTGDKKVYKAKLGHKNTLYYDEKLKRWVNKDATEEEKQKIIESSAPPPPPIVKRKDGGPKTKPRSGPINNSLPPVHATSVIPNNPITGEPLPIKTSPSPTGPNPNNSPSPSSPISRISGVNLTSKKANGLDDLLSLAGGPKPASTRRKKKTARGYVNVMDNIQ
B3: Sec16 fragment 1639–1996 (activation domain-fused) (domain or fragment, UniProt P48415 1639-1996)
chain: MYSPSVEALPIDPVVPQVHETGYNDFGNKHSQKSMPEDESHTSHDNSNADQNTLKDSADVTDETMDIEGPGFNDVKNLLPMEPNHQPTSTVNPIQTISDDIQPILQTNVEVRGTDASKMENSLPSIENERSSEEQPENISKSASSAYLPSTGGLSLENRPLTQDENSISETVQSTYLPAGSISMEAKPISQVQDVPRNVNNKASKLVEQHMAPPKPKSTDATKMNYSPYVPQSTAASADGDESTILKTSPAIYARTHQAHASNPSQYFPLVNQANETASFELSESTSQAQSNGNVASENRFSPIKKAEVVEKDTFQPTIRKASTNQYRAFKPLESDADKYNDVIEDESDDDNMSTDEA
B4: Sec16 fragment 1639–1967 (activation domain-fused) (domain or fragment, UniProt P48415 1639-1967)
chain: MYSPSVEALPIDPVVPQVHETGYNDFGNKHSQKSMPEDESHTSHDNSNADQNTLKDSADVTDETMDIEGPGFNDVKNLLPMEPNHQPTSTVNPIQTISDDIQPILQTNVEVRGTDASKMENSLPSIENERSSEEQPENISKSASSAYLPSTGGLSLENRPLTQDENSISETVQSTYLPAGSISMEAKPISQVQDVPRNVNNKASKLVEQHMAPPKPKSTDATKMNYSPYVPQSTAASADGDESTILKTSPAIYARTHQAHASNPSQYFPLVNQANETASFELSESTSQAQSNGNVASENRFSPIKKAEVVEKDTFQPTIRKASTNQYRA
B5: Sec16 fragment 1639–2195 Δ1856–1967 (activation domain-fused) (domain or fragment, UniProt P48415)
chain: MYSPSVEALPIDPVVPQVHETGYNDFGNKHSQKSMPEDESHTSHDNSNADQNTLKDSADVTDETMDIEGPGFNDVKNLLPMEPNHQPTSTVNPIQTISDDIQPILQTNVEVRGTDASKMENSLPSIENERSSEEQPENISKSASSAYLPSTGGLSLENRPLTQDENSISETVQSTYLPAGSISMEAKPISQVQDVPRNVNNKASKLVEQHMAPPKPKFKPLESDADKYNDVIEDESDDDNMSTDEAKNRKEEKKNVNMKKETKPSNKDIDDKSNGWFGWLKKDTGDKKVYKAKLGHKNTLYYDEKLKRWVNKDATEEEKQKIIESSAPPPPPIVKRKDGGPKTKPRSGPINNSLPPVHATSVIPNNPITGEPLPIKTSPSPTGPNPNNSPSPSSPISRISGVNLTSKKANGLDDLLSLAGGPKPASTRRKKKTARGYVNVMDNIQ
B6: Sed4–V5 (protein, UniProt P25365 1-1065)
chain: MSGNSANYDVGYPIYGAKFINEGTLLVAGGGGQFNSSFPNKITALKVNFQKKKHIRRFREITLDSIDDAPTSLDCNNNLILVGCNELFNDSSMENVNHHLRKFVFEQEHLKFVASIDFNRTTDPSVFTKFVYINQRATVAAIASSEVPTVIRIIDPRNLTENYEIETGREVNDLHFAPNGILLSYITSNSLEVASVRDGNFVARKTDFDKNLVLSNIRFLNDNTLLVAASLSNSDGVSLLKLGVSSKGVKILKTASFMFDLNGITSMDVSPNKKFVALSSNDNLVAIVSVEKLKLVQLVPRVHESTITKVTFSPDSRYLASTSMGNTINVLKLSGTSSSILRNIWKFFLNFVLLVVLAGAIQLGYKHNVHGFIYKHAHDIYKSKFKENTTIDQGSSSYFTINDDYRGITESADIISATDVASDIETEFSSFDTSTMRTTTEDEQKFVWISSSADSQFTSADIPTSASSSSSSSSSSFYEESVTNEPIVSSPTSEITKPLASPTEPNIVEKPSLPLNSESIDLLSSSSNSITEYPEPTPDLEEKLSSLIVEQSESEITTDRESVSKLLSTESPSLSHMPSSSSSSLSLSSSLTTSPTTALSTSTATAVTTTQTNPTNDAANTSFLDNSKPASTREIYKTKIITEVITKIEYRNIPASDSNAEAEQYVTTSSSMLLTPTDTMVSSPVSEIDPIASELERMVETPTHSISIASEFDSVASNLIPNEEILSTSASQDSISSHPSTFSDSSITSGFQSIEVSTVTSSVLASESIPSISDSTFSKFHSISEPVSSAIVETATSSFSKTETKTSRVIAFSTEDSERSSALIDNSEYTSVLADNLEPTSVLADNSEPTSVLADSSEPTSVFTDAVQSPKTSVGQSSLSESTNIEGTSMASMIFSSSGASIGALSDIGKGTLSVESASSTVAQPMPGVTTTAPSFVSSPHKISASSIDASGFVQKEIMIEVQSSKDSSEAFGVRHKISENVNTPVSRMLTTEMQASGTVDVTEDVSLSSEVISALNVEITSLPNPVAPPQTIAAPLNNNSNTNIVNDDNAVAGTVNYAGLHDEL
B7: Sec16 fragment 1968–2195 (activation domain-fused) (domain or fragment, UniProt P48415 1968-2195)
chain: FKPLESDADKYNDVIEDESDDDNMSTDEAKNRKEEKKNVNMKKETKPSNKDIDDKSNGWFGWLKKDTGDKKVYKAKLGHKNTLYYDEKLKRWVNKDATEEEKQKIIESSAPPPPPIVKRKDGGPKTKPRSGPINNSLPPVHATSVIPNNPITGEPLPIKTSPSPTGPNPNNSPSPSSPISRISGVNLTSKKANGLDDLLSLAGGPKPASTRRKKKTARGYVNVMDNIQ

What was measured:
[1] = molecular target: Sec12C, the N-terminal cytosolic domain of Sec12 (binding domain-fused) (S. cerevisiae); test: two-hybrid; Gal4 activation domain-fused Sec16 fragments (pGAD-C1) with Gal4 DNA-binding domain-fused Sec23, Sed4C, Sec12C or Sec12C chimeras (pGBDU-C1); growth on plates lacking histidine, leucine and uracil at 30°C for 4 days
[2] = molecular target: Sec12C4b1-2 (binding domain-fused) (S. cerevisiae); test: as above
[3] = molecular target: Sec12C4b1-3 (binding domain-fused) (S. cerevisiae); test: as above
[4] = molecular target: Sec12C4b1-5 (binding domain-fused) (S. cerevisiae); test: as above
[5] = molecular target: Sec12C4b2-3 (binding domain-fused) (S. cerevisiae); test: as above
[6] = molecular target: Sed4C, the N-terminal cytosolic domain of Sed4 (binding domain-fused) (S. cerevisiae); test: as above
[7] = molecular target: Sed4^ΔC–Flag (S. cerevisiae); test: co-IP; octylglucoside-solubilized extracts of sed4Δ cells (or sed4Δ sec16Δ cells expressing Sec16 or Sec16^ΔS4B); immunoprecipitation with anti-Flag (anti-DDDDK) antibody, blot with anti-Flag and anti-V5; 25 mM HEPES pH 8.0, 150 mM NaCl, 1 mM EDTA, 5% glycerol, 4°C
[8] = molecular target: Sed4^ΔL–Flag (S. cerevisiae); test: as above

Binder	binding [1]	binding [6]	further results
B1	no binding	binds	binding [2]: no binding; binding [3]: binds; binding [4]: binds; binding [5]: no binding
B2	no binding	binds	–
B3	no binding	binds	–
B4	no binding	no binding	–
B5	no binding	no binding	–
B6	–	–	binding [7]: no binding; binding [8]: no binding
B7	no binding	no binding	–
